Screening data, single-dose tests

By UniProt entry, the sequences of proteins in these tests, tags left out. Residues count along the entry.
UniProt P9WPC5, whole entry: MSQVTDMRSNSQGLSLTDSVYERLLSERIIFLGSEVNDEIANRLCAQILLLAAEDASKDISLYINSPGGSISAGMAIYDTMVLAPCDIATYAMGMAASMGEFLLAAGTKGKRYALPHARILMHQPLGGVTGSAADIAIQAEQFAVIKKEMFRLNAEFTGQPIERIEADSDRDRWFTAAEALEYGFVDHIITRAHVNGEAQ
UniProt P9WPC3, whole entry partner: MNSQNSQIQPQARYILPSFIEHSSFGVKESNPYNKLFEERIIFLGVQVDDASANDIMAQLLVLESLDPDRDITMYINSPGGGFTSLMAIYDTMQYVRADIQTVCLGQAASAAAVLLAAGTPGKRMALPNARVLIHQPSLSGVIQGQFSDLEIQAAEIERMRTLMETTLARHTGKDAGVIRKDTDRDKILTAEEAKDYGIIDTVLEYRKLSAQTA
UniProt Q4DA54, 1-478: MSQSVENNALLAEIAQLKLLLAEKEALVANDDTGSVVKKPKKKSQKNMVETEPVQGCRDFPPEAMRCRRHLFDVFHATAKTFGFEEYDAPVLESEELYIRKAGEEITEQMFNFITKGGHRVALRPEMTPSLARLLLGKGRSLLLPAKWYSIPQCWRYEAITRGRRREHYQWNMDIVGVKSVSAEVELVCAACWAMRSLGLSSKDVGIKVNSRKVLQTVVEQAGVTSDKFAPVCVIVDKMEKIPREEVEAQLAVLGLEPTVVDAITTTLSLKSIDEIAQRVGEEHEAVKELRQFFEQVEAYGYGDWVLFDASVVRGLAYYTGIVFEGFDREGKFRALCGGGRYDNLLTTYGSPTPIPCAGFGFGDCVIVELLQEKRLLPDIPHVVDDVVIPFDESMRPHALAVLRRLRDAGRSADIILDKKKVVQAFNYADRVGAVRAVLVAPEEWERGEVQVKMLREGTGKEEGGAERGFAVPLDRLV
UniProt P9WNZ1, whole entry: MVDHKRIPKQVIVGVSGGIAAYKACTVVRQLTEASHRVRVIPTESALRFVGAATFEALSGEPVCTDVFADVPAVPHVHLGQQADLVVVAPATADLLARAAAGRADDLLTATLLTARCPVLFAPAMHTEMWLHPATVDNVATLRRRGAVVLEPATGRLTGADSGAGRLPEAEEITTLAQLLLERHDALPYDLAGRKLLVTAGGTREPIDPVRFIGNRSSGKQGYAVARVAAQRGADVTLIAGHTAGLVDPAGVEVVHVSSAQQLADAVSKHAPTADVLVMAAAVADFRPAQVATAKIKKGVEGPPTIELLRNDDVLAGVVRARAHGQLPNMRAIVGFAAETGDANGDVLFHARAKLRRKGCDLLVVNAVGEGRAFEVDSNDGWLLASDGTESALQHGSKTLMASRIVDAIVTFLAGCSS

Source: ChEMBL document CHEMBL3988442, “University of Dundee, Small-Polar-MMV Screening Library” (2021).

A: 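ClpP1P2, Mycobacterium tuberculosis (UniProt P9WPC5 and UniProt P9WPC3). Protease assay of ClpP1P2, read by the AMC dye that it sets free. Concentration: 50 µM. Direction is inferred from only a few compounds that gave an IC50; most scored high, so higher reads as stronger inhibition. Most other retested compounds had strongly negative values. Of about 69,000 compounds tested this way, about 10 (0.015%) reached 50% or more in at least one test.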
B: 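Assay of Toxoplasma gondii numbers, read through their beta-galactosidase reporter with a colour substrate. Compounds at 10 µM. The record gives no direction; the compounds picked for IC50 retests had high values, so higher reads as fewer parasites. Of about 67,000 compounds tested this way, about 260 (0.38%) reached 50% or more in at least one test.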
C: 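Cell assay of Leishmania donovani living inside macrophages; the read-out is not stated. Tested at 30 µM. Direction is inferred from retests: higher values go with stronger inhibition. Size under these conditions: about 69,000 compounds, about 1,000 of them at 50% or above in at least one test.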
D: 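Histidine-tRNA ligase, Trypanosoma cruzi CL Brener (UniProt Q4DA54). Enzyme assay of histidyl-tRNA synthetase; the read-out is not stated. Tested at 30 µM. The record gives no direction; compounds that gave an IC50 in retests scored well above the rest, so higher reads as stronger inhibition. Of about 69,000 compounds tested this way, about 31 (0.045%) reached 50% or more in at least one test.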
E: 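Enzyme assay of CoaBC with a phosphate dye (Biomol Green) read at 650 nm. Target: Coenzyme A biosynthesis protein CoaBC, Mycobacterium tuberculosis (UniProt P9WNZ1). Tested at 30 µM. Direction is inferred from only a few compounds that gave an IC50; most scored high, so higher reads as stronger inhibition. Most strong results did not repeat in a second test. Size under these conditions: about 67,000 compounds, about 40 of them at 50% or above in at least one test.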

Results are given as percent effect.
The controls that fix the scale are not given in the record; negative values are as filed.
The compounds are a random part of those screened.
Two or more numbers in one place are separate tests of the same structure; such repeats can differ widely.

{"structure": "O=C(O)C(F)(F)F.O=C(c1ccco1)N1CCCC2(CCN(c3nncs3)C2)C1", "stereo": "stereo unspecified", "B": -5.557, "C": 36.42}
{"structure": "CC[C@@]1(O)CCN(C(=O)c2ccc(-c3ccco3)cc2)C[C@H]1O", "A": -6.053, "B": 13.81, "C": 29.12, "D": 3.061, "E": 4.242}
{"structure": "Cc1ccc(C(=O)N2C[C@@H]3COC[C@]3(COCc3cccnc3)C2)cn1", "A": -0.8433, "D": 8.602, "E": 6.947}
{"structure": "O=C(c1cccnc1)N1CCOC2(COCCN(c3cncnc3)C2)C1", "stereo": "stereo unspecified", "A": 0.6657, "D": 5.747, "E": -10.39}
{"structure": "CC(=O)NCC1CCC2(CCN(c3ncc(C(C)=O)c(C)n3)CC2)O1", "stereo": "stereo unspecified", "A": -12.96, "B": -22.12, "C": 21.54, "D": 1.754, "E": 0.8631}
{"structure": "O=C(NC1CC1)N1CCOCC2(CCN(Cc3cccs3)C2)C1.O=C(O)C(F)(F)F", "stereo": "stereo unspecified", "B": 9.43, "C": -12.08}
{"structure": "O=C(CCc1nc(Cl)n[nH]1)N1C[C@H](CO)C[C@H](CN2CCCC2)C1", "A": -0.6467, "B": -3.308, "C": -0.6262, "D": 3.743, "E": 6.522}
{"structure": "CSc1ccc(C(O)CNS(=O)(=O)C2CC2)cc1", "stereo": "stereo unspecified", "A": -9.86, "B": -1.802, "C": "5.023 and 4.733", "D": 2.062, "E": -3.171}
{"structure": "c1cnc(-c2nc(C3CCOC3)no2)cn1", "stereo": "stereo unspecified", "A": -6.673, "B": -10.49, "C": 12.04, "D": 2.128, "E": -10.86}
{"structure": "Cc1cnn(CCCOc2ccc3c(c2)OCO3)c1", "A": 3.672, "B": 0, "C": 23.26, "D": 2.618, "E": 6.638}
{"structure": "CC(C)NC(=O)CN(C1CC1)C(C)C1CC1", "stereo": "stereo unspecified", "A": -3.724, "B": -0.5907, "C": -11.21, "D": -0.4926, "E": 2.215}
{"structure": "COCCN1CC(c2nc(CSC)no2)CCC1=O", "stereo": "stereo unspecified", "A": -1.992, "B": -0.717, "C": 45.57, "D": -3.352, "E": 5.141}
{"structure": "Fc1ccc(CN2CCC3(CC2)CCN(c2ncccn2)CC3)cc1", "A": 12.48, "D": 10.92, "E": -13.18}
{"structure": "CS(=O)(=O)NCc1noc2c1CN(C(=O)C1CC1)CC2", "A": -7.701, "B": 25.13, "C": 4.928, "D": -0.5025, "E": 2.351}
{"structure": "CN1C[C@@H](C(=O)N2CCCOCC2)[C@@]2(CCc3ccccc3C(=O)N2)C1", "A": -15.33, "B": 13.13, "C": 6.578, "D": 7.28, "E": "20.87 and 6.701"}

Once more, the final 2:

structure,A,B,C,D,E
CS(=O)(=O)NCc1noc2c1CN(C(=O)C1CC1)CC2,-7.701,25.13,4.928,-0.5025,2.351
CN1C[C@@H](C(=O)N2CCCOCC2)[C@@]2(CCc3ccccc3C(=O)N2)C1,-15.33,13.13,6.578,7.28,20.87 and 6.701